Reference: PubChem BioAssay AID1671190 (National Center for Advancing Translational Sciences (NCATS), 2021)
In all, about 580,000 compounds went through this assay and about 6,100 (1.1%) were called active. Inconclusive means that the source gave no clear call. Such entries were picked first, then a sample of the others. The call rests on the fitted dose curve; in most records, active means well fitted inhibition curve with a large enough effect; inconclusive means small, poorly fitted or top-dose-only effect, or another doubt; inactive means no such curve, though single readings can be large or run the other way. A potency beside an inconclusive call is a rough fit, not a confirmed value.

Protein sequences, listed by entry. Tags and fused reporters are not part of them. Lines headed by an entry give the natural chain unless they say otherwise; changes in a name come on top.
UniProt P18054: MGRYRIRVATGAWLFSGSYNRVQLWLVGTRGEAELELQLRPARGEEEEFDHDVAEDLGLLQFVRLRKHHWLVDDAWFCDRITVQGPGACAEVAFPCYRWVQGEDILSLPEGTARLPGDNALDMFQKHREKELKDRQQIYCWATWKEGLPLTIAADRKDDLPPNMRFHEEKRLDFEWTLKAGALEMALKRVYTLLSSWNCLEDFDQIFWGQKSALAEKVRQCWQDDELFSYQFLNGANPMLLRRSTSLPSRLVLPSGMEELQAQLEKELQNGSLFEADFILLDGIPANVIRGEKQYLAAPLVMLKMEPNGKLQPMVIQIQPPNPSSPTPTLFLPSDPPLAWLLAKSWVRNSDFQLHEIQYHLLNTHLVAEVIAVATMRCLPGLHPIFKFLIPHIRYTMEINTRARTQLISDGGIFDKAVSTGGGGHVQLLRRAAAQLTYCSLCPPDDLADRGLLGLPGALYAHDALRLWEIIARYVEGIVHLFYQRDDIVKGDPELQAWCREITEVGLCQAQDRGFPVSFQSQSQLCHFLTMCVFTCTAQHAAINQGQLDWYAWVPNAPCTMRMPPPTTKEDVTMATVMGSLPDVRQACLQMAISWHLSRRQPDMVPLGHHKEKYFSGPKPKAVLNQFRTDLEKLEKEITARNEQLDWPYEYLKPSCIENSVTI

Each molecule was assayed against Polyunsaturated fatty acid lipoxygenase ALOX12 (Homo sapiens) (UniProt P18054) (assay: Primary qHTS assay for inhibitors of human arachidonate 12S-lipoxygenase (ALOX12): Round 2). Conditions: purified 12hLO, xylenol orange hydroperoxide absorbance; activity change, negative = inhibition: at 108 µM (top of the series) unless noted.
Procedure, shortened: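 Purified human 12hLO (150 nM final) in 25 mM Hepes, 0.01% Triton X-100, pH 7.0 was preincubated 15 min at room temperature with compound. Then 40 uM arachidonic acid was added, 30 min. Hydroperoxide was read by Fe-XO absorbance ratio 573/405 nm.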
On the % scale 0 is the no-effect control and ±100 the full control effect; potency means the concentration at half of the fitted maximal effect.

SMILES | Potency | activity change, negative = inhibition
O=C(/C(C=Nc1cccc(Cl)c1)=C(/O)c1ccco1)C(F)(F)F | inconclusive: 25.1 µM [inhibitor, partial curve, poor fit] | 
COc1cccc(Cn2c(=O)cnc3cnc(N4CCOCC4)nc32)c1 | inconclusive: 3.98 µM [inhibitor, full curve, poor fit] | 
CCOC(=O)c1sc(N/N=C/c2cc(Br)c(O)c(OC)c2)nc1C | inactive | 
CCCCC1(C)NC(=O)N(c2ccc(Br)cc2)N1 (stereo unspecified) | inconclusive: 50.1 µM [inhibitor, partial curve, poor fit] | 
Cc1ccc(C)c(-c2cc(C(=O)O)c3ccccc3n2)c1 | inconclusive: 112 µM [inhibitor, partial curve, poor fit] | 
CC1CCN(CCOCCOc2ccc(Cl)cc2Br)CC1 | inconclusive: 1.41 µM [inhibitor, full curve, poor fit] | 
O=C(N/N=C\C=C\c1ccco1)C1COc2ccccc2O1 (stereo unspecified) | inconclusive: 2.24 µM [inhibitor, full curve, poor fit] | 
N#Cc1ccccc1OCC(=O)N1CC(=O)Nc2ccccc21 | inconclusive: 50.1 µM [inhibitor, partial curve, poor fit] | 
Nc1ccc2nc(-c3ccccn3)[nH]c2c1 | inactive | 
COc1cc(C2NC(=O)c3ccccc3O2)cc(OC)c1OC (stereo unspecified) | inactive | 
COC(=O)c1scc(C)c1N/N=C(\C)c1cc(F)c(Cl)cc1F |  | inconclusive: -38% [inhibitor]
O=C(O)c1ccc(C2Nc3ccccc3-c3nnc(SCc4ccc(Cl)cc4)nc3O2)cc1 (stereo unspecified) | inconclusive: 31.6 µM [inhibitor, partial curve, poor fit] | 
CC(=O)c1ccc(/C=C/c2ccccc2)cc1 | inconclusive: 70.8 µM [inhibitor, partial curve, poor fit] | 
CCCN1C(=O)C2(c3ccccc31)c1c(oc3ccccc3c1=O)C(=O)N2CCCOC(C)C (stereo unspecified) | inactive | 
O=C(Nc1ccc2nc3n(c(=O)c2c1)CCCC3)c1cccnc1Cl | inactive | 
COc1cc(/C=C2\SC(=S)N(C(C(=O)O)c3ccccc3)C2=O)cc(OC)c1OC (stereo unspecified) | inconclusive: 126 µM [inhibitor, single point] | 
CC1CCCCN1C(=O)COc1ccccc1F (stereo unspecified) | inactive | 
O=C(NNC(=O)C1CCCC1)c1ccccc1F | inconclusive: 126 µM [inhibitor, partial curve, poor fit] | 
O=C(Nc1ccc2c(c1)OCO2)N1CCN(c2cccc(C(F)(F)F)c2)CC1 | inactive | 
O=C(Nc1ccccc1)c1sc(NC2CCCCC2)nc1-c1ccc([N+](=O)[O-])cc1 | inconclusive: 39.8 µM [inhibitor, partial curve, poor fit] | 
O=C(COC(=O)c1c[nH]c2ccccc12)NC(c1ccccc1)c1ccccc1 | inconclusive: 50.1 µM [inhibitor, single point] | 
O=C(C1CC1)N1CCC2(CC1)CCN(Cc1cccs1)c1ccccc1O2 | inconclusive: 35.5 µM [inhibitor, partial curve, poor fit] | 
CCc1ccc2[nH]c(=O)c(C(c3nnnn3Cc3ccccc3)N3CCOCC3)cc2c1 (stereo unspecified) | inconclusive: 79.4 µM [inhibitor, partial curve, poor fit] | 

SMILES | Potency | activity change, negative = inhibition
O=C(O)/C=C/C(=O)NCCCc1ccccc1 | inconclusive: 89.1 µM [inhibitor, single point] | 
O=C(NCCc1ccccc1)c1ccc(Br)o1 | inactive | 
COc1cc2c(cc1OC)CN(c1nc(CN3CCOCC3)nc3sc4c(c13)CCC(C)C4)CC2 (stereo unspecified) | inactive | 
COc1ccc(/C=C2/SC(=O)N(CCCCCC(=O)Nc3ccccc3C(=O)O)C2=S)cc1 | inconclusive: 50.1 µM [inhibitor, partial curve, poor fit] | 
O=c1[nH]c2c(cnn2-c2ccc(Cl)cc2)c(=O)n1-c1cccc(Cl)c1 | inconclusive: 112 µM [inhibitor, single point] | 
Cc1ccc(C)c(NC(=O)CN(C)C(=O)c2cc(S(=O)(=O)N3CCOCC3)ccc2N2CCCC2)c1 | inactive | 
COC(=O)CCC(=O)Nc1ccc(Cl)c(Cl)c1 | inactive | 
COc1ccc(NS(=O)(=O)c2ccc(C)c(C(=O)NCC(c3ccco3)N3CCCCC3)c2)cc1 (stereo unspecified) | inactive | 
O=C(c1cccc(Cl)c1)N1CCC(c2nc3ccccc3o2)CC1 | inconclusive: 0.631 µM [inhibitor, full curve, poor fit] | 
Cc1cnc(CNc2ncnc3ccc(-c4cccc(C#N)c4)cc23)cn1 | inconclusive: 100 µM [inhibitor, partial curve, poor fit] | 
CC(Sc1nc2c([nH]c3ccccc32)c(=O)n1-c1ccccc1)c1ccccc1 (stereo unspecified) | inconclusive: 14.1 µM [inhibitor, full curve] | 
N/C(COc1ncn(-c2ccccc2)n1)=N\S(=O)(=O)c1ccc(Cl)cc1Cl | inactive | 
CN(C1CCc2nn(CC3CC3)c(=O)n2CC1)S(=O)(=O)Cc1ccccc1 (stereo unspecified) | inactive | 
Cc1ccc(Sc2ccc(NC(=O)c3ccc(S(C)(=O)=O)cc3Cl)cc2)cc1 | inactive | 
COCc1ccc(C(=O)N2CCCC(CNC(=O)c3ccc(F)cc3)C2)o1 (stereo unspecified) | inconclusive: 56.2 µM [inhibitor, partial curve, poor fit] | 
Cc1ncc(-c2ccc(C)c(S(=O)(=O)N3CCN(c4cccc(Cl)c4)CC3)c2)o1 | inactive | 
CSc1ccc(/C=C2N=C(/C=C/c3ccccc3)OC/2=O)cc1 | inconclusive: 25.1 µM [inhibitor, partial curve, poor fit] | 
O=C(C1CCCCC1)N1CCCC(c2noc(COc3ccccc3)n2)C1 (stereo unspecified) | inactive | 
CCCn1c(C)cnc1C1CCN(C(=O)NC(C)C)C1 (stereo unspecified) | inactive | 
CCOC(=O)C1CCCN(CC(=O)Nc2c(F)c(F)c(F)c(F)c2F)C1 (stereo unspecified) | inactive | 
CN(C)CCN1C(=O)c2cccc3cc(N)cc(c23)C1=O | inactive | 
Cc1c(Cl)cccc1NC(=O)C(C)NS(=O)(=O)c1ccc2c(c1)CCN2C(=O)N1CCCC1 (stereo unspecified) | inactive | 
CCOc1ccc(Cl)cc1/C=C1/C(=O)ON=C1C | inconclusive: 35.5 µM [inhibitor, partial curve, poor fit] | 

Three compounds from above, ordered by formula weight, low to high:
SMILES | Potency | activity change, negative = inhibition
CCCn1c(C)cnc1C1CCN(C(=O)NC(C)C)C1 (stereo unspecified) | inactive | 
Cc1cnc(CNc2ncnc3ccc(-c4cccc(C#N)c4)cc23)cn1 | inconclusive: 100 µM [inhibitor, partial curve, poor fit] | 
COCc1ccc(C(=O)N2CCCC(CNC(=O)c3ccc(F)cc3)C2)o1 (stereo unspecified) | inconclusive: 56.2 µM [inhibitor, partial curve, poor fit] | 
